Data published in the supplement of paper PMC8728848.
The other results are listed elsewhere or left out.

Experiments:
Assay in all cases: glycan array binding signal (z-score within array); higher = stronger binding
Conditions in all cases: glycan notation: IUPAC condensed, linker removed
[1] = biological target: Fuc(a1-2)Gal(b1-4)GlcNAc(b1-2)[Fuc(a1-2)Gal(b1-4)GlcNAc(b1-4)]Man(a1-3)[Fuc(a1-2)Gal(b1-4)GlcNAc(b1-2)Man(a1-6)]Man(b1-4)GlcNAc(b1-4)GlcNAc
Method in brief: (§1)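 The Consortium for Functional Glycomics database supplied 3228 glycan arrays, of which those lacking an available protein sequence were dropped. The binding signal, a within-array Z-score, was averaged across arrays of the same protein sequence and across linkers. Negative scores can be read as non-binding.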

[2] = biological target: Fuc(a1-2)Gal(b1-4)GlcNAc(b1-3)Gal(b1-4)GlcNAc
Method in brief: as §1

[3] = biological target: Fuc(a1-2)Gal(b1-4)GlcNAc(b1-3)Gal(b1-4)GlcNAc(b1-2)Man(a1-3)[Fuc(a1-2)Gal(b1-4)GlcNAc(b1-3)Gal(b1-4)GlcNAc(b1-2)Man(a1-6)]Man(b1-4)GlcNAc(b1-4)GlcNAc
Method in brief: as §1

[4] = biological target: Fuc(a1-2)Gal(b1-4)GlcNAc(b1-3)Gal(b1-4)GlcNAc(b1-3)Gal(b1-4)GlcNAc
Method in brief: as §1

[5] = biological target: Fuc(a1-2)Gal(b1-4)GlcNAc(b1-3)GalNAc
Method in brief: as §1

[6] = biological target: Fuc(a1-2)Gal(b1-4)GlcNAc(b1-3)[Fuc(a1-2)Gal(b1-4)GlcNAc(b1-6)]GalNAc
Method in brief: as §1

[7] = biological target: Fuc(a1-2)Gal(b1-4)GlcNAc(b1-3)[Fuc(a1-3)[Gal(b1-4)]GlcNAc(b1-6)]Gal(b1-4)Glc
Method in brief: as §1

[8] = biological target: Fuc(a1-2)Gal(b1-4)GlcNAc(b1-6)GalNAc
Method in brief: as §1

[9] = biological target: Fuc(a1-2)Gal(b1-4)GlcNAc6S
Method in brief: as §1

[10] = biological target: Fuc(a1-2)Gal(b1-4)[Fuc(a1-3)]GlcNAc
Method in brief: as §1

[11] = biological target: Fuc(a1-2)Gal(b1-4)[Fuc(a1-3)]GlcNAc(b1-2)Man(a1-3)[Fuc(a1-2)Gal(b1-4)[Fuc(a1-3)]GlcNAc(b1-2)Man(a1-6)]Man(b1-4)GlcNAc(b1-4)GlcNAc
Method in brief: as §1

[12] = biological target: Fuc(a1-2)Gal(b1-4)[Fuc(a1-3)]GlcNAc(b1-2)Man(a1-3)[Fuc(a1-2)Gal(b1-4)[Fuc(a1-3)]GlcNAc(b1-2)Man(a1-6)]Man(b1-4)GlcNAc(b1-4)[Fuc(a1-6)]GlcNAc
Method in brief: as §1

[13] = biological target: Fuc(a1-2)Gal(b1-4)[Fuc(a1-3)]GlcNAc(b1-2)[Fuc(a1-2)Gal(b1-4)[Fuc(a1-3)]GlcNAc(b1-4)]Man(a1-3)[Fuc(a1-2)Gal(b1-4)[Fuc(a1-3)]GlcNAc(b1-2)Man(a1-6)]Man(b1-4)GlcNAc(b1-4)GlcNAc
Method in brief: as §1

[14] = biological target: Fuc(a1-2)Gal(b1-4)[Fuc(a1-3)]GlcNAc(b1-3)Gal(b1-4)[Fuc(a1-3)]GlcNAc
Method in brief: as §1

[15] = biological target: Fuc(a1-2)Gal(b1-4)[Fuc(a1-3)]GlcNAc(b1-3)Gal(b1-4)[Fuc(a1-3)]GlcNAc(b1-3)Gal(b1-4)[Fuc(a1-3)]GlcNAc
Method in brief: as §1

[16] = biological target: Fuc(a1-2)Gal(b1-4)[Fuc(a1-3)]GlcNAc(b1-3)GalNAc
Method in brief: as §1

[17] = biological target: Fuc(a1-2)Gal(b1-4)[Fuc(a1-3)]GlcNAc(b1-3)[Neu5Ac(a2-6)Gal(b1-4)GlcNAc(b1-6)]Gal(b1-4)Glc
Method in brief: as §1

[18] = biological target: Fuc(a1-2)Gal3S(b1-4)GlcNAc
Method in brief: as §1

[19] = biological target: Fuc(a1-2)Gal6S(b1-3)GlcNAc
Method in brief: as §1

[20] = biological target: Fuc(a1-2)Gal6S(b1-3)GlcNAc6S
Method in brief: as §1

Fuc(a1-2)Gal6S(b1-4)Glc = biological target: Fuc(a1-2)Gal6S(b1-4)Glc
Method in brief: as §1

[21] = biological target: Fuc(a1-2)Gal6S(b1-4)Glc6S
Method in brief: as §1

[22] = biological target: Fuc(a1-2)Gal6S(b1-4)GlcNAc
Method in brief: as §1

Fuc(a1-2)[Gal(a1-3)]Gal = biological target: Fuc(a1-2)[Gal(a1-3)]Gal
Method in brief: as §1

[23] = biological target: Fuc(a1-2)[Gal(a1-3)]Gal(b1-3)GalNAc
Method in brief: as §1

[24] = biological target: Fuc(a1-2)[Gal(a1-3)]Gal(b1-3)GalNAc(b1-3)Gal(a1-4)Gal(b1-4)Glc
Method in brief: as §1

[25] = biological target: Fuc(a1-2)[Gal(a1-3)]Gal(b1-3)GlcNAc
Method in brief: as §1

[26] = biological target: Fuc(a1-2)[Gal(a1-3)]Gal(b1-3)GlcNAc(b1-2)Man(a1-3)[Fuc(a1-2)[Gal(a1-3)]Gal(b1-3)GlcNAc(b1-2)Man(a1-6)]Man(b1-4)GlcNAc(b1-4)GlcNAc
Method in brief: as §1

[27] = biological target: Fuc(a1-2)[Gal(a1-3)]Gal(b1-3)GlcNAc(b1-2)Man(a1-3)[Fuc(a1-2)[Gal(a1-3)]Gal(b1-3)GlcNAc(b1-2)Man(a1-6)]Man(b1-4)GlcNAc(b1-4)[Fuc(a1-6)]GlcNAc
Method in brief: as §1

[28] = biological target: Fuc(a1-2)[Gal(a1-3)]Gal(b1-3)GlcNAc(b1-3)GalNAc
Method in brief: as §1

[29] = biological target: Fuc(a1-2)[Gal(a1-3)]Gal(b1-3)GlcNAc(b1-6)GalNAc
Method in brief: as §1

[30] = biological target: Fuc(a1-2)[Gal(a1-3)]Gal(b1-4)Glc
Method in brief: as §1

[31] = biological target: Fuc(a1-2)[Gal(a1-3)]Gal(b1-4)GlcNAc
Method in brief: as §1

[32] = biological target: Fuc(a1-2)[Gal(a1-3)]Gal(b1-4)GlcNAc(b1-2)Man
Method in brief: as §1

[33] = biological target: Fuc(a1-2)[Gal(a1-3)]Gal(b1-4)GlcNAc(b1-2)Man(a1-3)[Fuc(a1-2)[Gal(a1-3)]Gal(b1-4)GlcNAc(b1-2)Man(a1-6)]Man(b1-4)GlcNAc(b1-4)GlcNAc
Method in brief: as §1

[34] = biological target: Fuc(a1-2)[Gal(a1-3)]Gal(b1-4)GlcNAc(b1-2)Man(a1-3)[Fuc(a1-2)[Gal(a1-3)]Gal(b1-4)GlcNAc(b1-2)Man(a1-6)]Man(b1-4)GlcNAc(b1-4)[Fuc(a1-6)]GlcNAc
Method in brief: as §1

[35] = biological target: Fuc(a1-2)[Gal(a1-3)]Gal(b1-4)GlcNAc(b1-3)GalNAc
Method in brief: as §1

[36] = biological target: Fuc(a1-2)[Gal(a1-3)]Gal(b1-4)GlcNAc(b1-3)[Fuc(a1-2)[Gal(a1-3)]Gal(b1-4)GlcNAc(b1-6)]GalNAc
Method in brief: as §1

[37] = biological target: Fuc(a1-2)[Gal(a1-3)]Gal(b1-4)GlcNAc(b1-6)GalNAc
Method in brief: as §1

[38] = biological target: Fuc(a1-2)[Gal(a1-3)]Gal(b1-4)[Fuc(a1-3)]Glc
Method in brief: as §1

[39] = biological target: Fuc(a1-2)[Gal(a1-3)]Gal(b1-4)[Fuc(a1-3)]GlcNAc
Method in brief: as §1

[40] = biological target: Fuc(a1-2)[Gal(a1-3)]Gal(b1-4)[Fuc(a1-3)]GlcNAc(b1-3)GalNAc
Method in brief: as §1

[41] = biological target: Fuc(a1-2)[Gal(a1-4)]Gal(b1-4)GlcNAc
Method in brief: as §1

[42] = biological target: Fuc(a1-2)[GalNAc(a1-3)]Gal
Method in brief: as §1

[43] = biological target: Fuc(a1-2)[GalNAc(a1-3)]Gal(b1-3)GalNAc(a1-3)[Fuc(a1-2)]Gal(b1-4)GlcNAc
Method in brief: as §1

[44] = biological target: Fuc(a1-2)[GalNAc(a1-3)]Gal(b1-3)GalNAc(b1-3)Gal(a1-4)Gal(b1-4)Glc
Method in brief: as §1

[45] = biological target: Fuc(a1-2)[GalNAc(a1-3)]Gal(b1-3)GlcNAc
Method in brief: as §1

[46] = biological target: Fuc(a1-2)[GalNAc(a1-3)]Gal(b1-3)GlcNAc(b1-2)Man(a1-3)[Fuc(a1-2)[GalNAc(a1-3)]Gal(b1-3)GlcNAc(b1-2)Man(a1-6)]Man(b1-4)GlcNAc(b1-4)GlcNAc
Method in brief: as §1

[47] = biological target: Fuc(a1-2)[GalNAc(a1-3)]Gal(b1-3)GlcNAc(b1-2)Man(a1-3)[Fuc(a1-2)[GalNAc(a1-3)]Gal(b1-3)GlcNAc(b1-2)Man(a1-6)]Man(b1-4)GlcNAc(b1-4)[Fuc(a1-6)]GlcNAc
Method in brief: as §1

[48] = biological target: Fuc(a1-2)[GalNAc(a1-3)]Gal(b1-3)GlcNAc(b1-3)GalNAc
Method in brief: as §1

[49] = biological target: Fuc(a1-2)[GalNAc(a1-3)]Gal(b1-3)GlcNAc(b1-6)GalNAc
Method in brief: as §1

[50] = biological target: Fuc(a1-2)[GalNAc(a1-3)]Gal(b1-4)Glc
Method in brief: as §1

B1: NK2 (Sus scrofa) (peptide)
chain: KILRGVCKKIMRTFLRRISKDILTGKK
glycan array binding signal (z-score) [1]: 0.417
glycan array binding signal (z-score) [2]: -0.437
glycan array binding signal (z-score) [3]: -0.279
glycan array binding signal (z-score) [4]: 0.328
glycan array binding signal (z-score) [5]: 0.329
glycan array binding signal (z-score) [6]: 0.298
glycan array binding signal (z-score) [7]: -0.934
glycan array binding signal (z-score) [8]: -0.368
glycan array binding signal (z-score) [9]: 1.15
glycan array binding signal (z-score) [10]: -0.856
glycan array binding signal (z-score) [11]: 0.271
glycan array binding signal (z-score) [12]: -0.551
glycan array binding signal (z-score) [13]: 0.322
glycan array binding signal (z-score) [14]: -1.24
glycan array binding signal (z-score) [15]: 0.193
glycan array binding signal (z-score) [16]: 0.765
glycan array binding signal (z-score) [17]: 0.725
glycan array binding signal (z-score) [18]: -1.68
glycan array binding signal (z-score) [19]: 1.09
glycan array binding signal (z-score) [20]: 2.03
glycan array binding signal (z-score) (Fuc(a1-2)Gal6S(b1-4)Glc): 0.092
glycan array binding signal (z-score) [21]: 2.24
glycan array binding signal (z-score) [22]: 1.7
glycan array binding signal (z-score) (Fuc(a1-2)[Gal(a1-3)]Gal): -0.111
glycan array binding signal (z-score) [23]: -0.349
glycan array binding signal (z-score) [24]: 1.23
glycan array binding signal (z-score) [25]: -0.528
glycan array binding signal (z-score) [26]: -1.04
glycan array binding signal (z-score) [27]: 0.527
glycan array binding signal (z-score) [28]: 0.068
glycan array binding signal (z-score) [29]: 1.05
glycan array binding signal (z-score) [30]: 0.328
glycan array binding signal (z-score) [31]: -0.19
glycan array binding signal (z-score) [32]: -1.38
glycan array binding signal (z-score) [33]: 0.87
glycan array binding signal (z-score) [34]: -0.152
glycan array binding signal (z-score) [35]: -0.435
glycan array binding signal (z-score) [36]: 0.063
glycan array binding signal (z-score) [37]: 0.282
glycan array binding signal (z-score) [38]: -0.572
glycan array binding signal (z-score) [39]: 0.425
glycan array binding signal (z-score) [40]: 0.783
glycan array binding signal (z-score) [41]: 0.293
glycan array binding signal (z-score) [42]: -0.389
glycan array binding signal (z-score) [43]: 0.266
glycan array binding signal (z-score) [44]: 0.467
glycan array binding signal (z-score) [45]: 0.659
glycan array binding signal (z-score) [46]: -0.288
glycan array binding signal (z-score) [47]: 0.245
glycan array binding signal (z-score) [48]: -0.472
glycan array binding signal (z-score) [49]: -1.01
glycan array binding signal (z-score) [50]: -0.127
